Source: article PMC6465387

Biological target: OsPAD4-nYFP (rice)
Test: split reporter; BiFC in rice variety Zhonghua 11 stem protoplasts co-transformed with nYFP and cYFP constructs; confocal microscopy

B1: AtEDS1-cYFP (protein, UniProt Q9SU72-1 1-623)
chain: MAFEALTGINGDLITRSWSASKQAYLTERYHKEEAGAVVIFAFQPSFSEKDFFDPDNKSSFGEIKLNRVQFPCMRKIGKGDVATVNEAFLKNLEAIIDPRTSFQASVEMAVRSRKQIVFTGHSSGGATAILATVWYLEKYFIRNPNVYLEPRCVTFGAPLVGDSIFSHALGREKWSRFFVNFVSRFDIVPRIMLARKASVEETLPHVLAQLDPRKSSVQESEQRITEFYTRVMRDTSTVANQAVCELTGSAEAFLETLSSFLELSPYRPAGTFVFSTEKRLVAVNNSDAILQMLFYTSQASDEQEWSLIPFRSIRDHHSYEELVQSMGKKLFNHLDGENSIESTLNDLGVSTRGRQYVQAALEEEKKRVENQKKIIQVIEQERFLKKLAWIEDEYKPKCQAHKNGYYDSFKVSNEENDFKANVKRAELAGVFDEVLGLMKKCQLPDEFEGDIDWIKLATRYRRLVEPLDIANYHRHLKNEDTGPYMKRGRPTRYIYAQRGYEHYILKPNGMIAEDVFWNKVNGLNLGLQLEEIQETLKNSGSECGSCFWAEVEELKGKPYEEVEVRVKTLEGMLGEWITDGEVDDKEIFLEGSTFRKWWITLPKNHKSHSPLRDYMMDEITDT
B1 was tested, and the binding was “binds”.

These are yes or no findings as the source states them, for the method shown. In cells and extracts the contact can be indirect. Binding can be weak; no strength is given. Sequences can lack the tags named with a protein.
